{
  "sequences": {"note": "Chains of the proteins cited; added tags and fusions are not shown.", "UniProt Q9Y572": "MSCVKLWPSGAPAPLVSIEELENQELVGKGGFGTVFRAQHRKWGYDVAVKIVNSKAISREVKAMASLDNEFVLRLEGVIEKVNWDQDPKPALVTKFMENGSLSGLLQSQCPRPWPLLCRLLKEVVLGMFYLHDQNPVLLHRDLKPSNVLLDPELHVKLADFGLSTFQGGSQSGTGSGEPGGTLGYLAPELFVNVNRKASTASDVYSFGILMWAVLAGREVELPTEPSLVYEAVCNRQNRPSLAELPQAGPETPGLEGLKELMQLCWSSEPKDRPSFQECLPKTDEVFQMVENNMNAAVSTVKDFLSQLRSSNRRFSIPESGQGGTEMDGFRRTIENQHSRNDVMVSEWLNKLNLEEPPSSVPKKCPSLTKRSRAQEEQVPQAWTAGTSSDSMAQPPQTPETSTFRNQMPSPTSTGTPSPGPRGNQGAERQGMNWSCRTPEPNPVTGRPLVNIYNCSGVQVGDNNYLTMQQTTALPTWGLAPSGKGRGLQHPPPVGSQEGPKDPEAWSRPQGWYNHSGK", "UniProt Q14258": "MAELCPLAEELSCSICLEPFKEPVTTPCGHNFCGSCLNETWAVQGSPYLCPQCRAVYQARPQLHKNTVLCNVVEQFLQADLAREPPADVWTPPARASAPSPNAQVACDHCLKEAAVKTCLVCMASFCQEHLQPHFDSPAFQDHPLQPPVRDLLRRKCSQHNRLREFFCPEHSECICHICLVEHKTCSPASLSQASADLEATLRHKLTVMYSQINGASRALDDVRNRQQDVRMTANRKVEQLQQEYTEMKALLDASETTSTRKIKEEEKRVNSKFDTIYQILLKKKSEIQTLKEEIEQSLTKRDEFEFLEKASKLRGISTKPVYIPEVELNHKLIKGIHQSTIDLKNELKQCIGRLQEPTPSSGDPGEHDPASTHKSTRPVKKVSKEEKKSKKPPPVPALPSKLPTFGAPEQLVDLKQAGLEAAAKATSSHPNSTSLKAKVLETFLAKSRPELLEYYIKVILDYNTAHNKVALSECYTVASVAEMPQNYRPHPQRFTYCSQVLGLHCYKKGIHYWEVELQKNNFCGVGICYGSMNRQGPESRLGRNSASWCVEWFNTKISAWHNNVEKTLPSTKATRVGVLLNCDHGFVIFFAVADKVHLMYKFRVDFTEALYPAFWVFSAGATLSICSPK"},
  "source": "paper PMC8481267",
  "biological_target": "human RIP3 overexpressed for mass spectrometry (human) (UniProt Q9Y572)",
  "assay": "affinity purification with mass spectrometry; human RIP3 overexpressed in HeLa and HEK293T cells, immunoprecipitation with an anti-RIP3 antibody, high-sensitivity mass spectrometry",
  "note": "Results are given in words; binding and its absence hold for the method and conditions named. In cells and extracts the contact can be indirect. These calls come from enrichment with a bait or labelling near it, and not all partners need be listed.",
  "data": [
    {"substance": "endogenous TRIM25 (from UniProt Q14258 1-630)", "values": [
      {"measurement": "binding", "result": "binds"}
    ]}
  ]
}
